Patent publication US20090298169A1, “Pancreatic and Liver Endoderm Cells and Tissue by Differentiation of Definitive Endoderm Cells Obtained from Human Embryonic Stems” (The University of Georgia Research Foundation, priority 2006, published 2009)
At least one compound was matched to its structure with a doubt left. Some entries share one result that the patent states for a list of compounds.

Columns and labels:
hESCs = settings: D'Amour et al 2005 and McLean et al 2007 methods; markers CXCR4, Sox17, FoxA2; cited from earlier work
BG01 cells [1] = assay: Morphology of BG01 hES cells cultured with PI3-kinase pathway inhibitors (standard microscopy); type: cell-based, human
Method: BG01 cells are passaged from feeders using the collagenase/trypsin method and are plated on matrigel coated dishes at 1×10^5 cells/35 mm dish in conditioned medium (CM; MEF conditioned medium plus 8 ng/ml bFGF). After approximately 24 hours, the media is replaced with fresh CM, CM with inhibitor (resuspended in EtOH), CM with EtOH, or with Spontaneous Differentiation medium (hES medium minus bFGF).
In alternative methods, the BG01 cells may be plated at different concentrations prior to contact with CM, CM with inhibitor and CM with EtOH Cells may be plated at the following concentrations: approximately 5×10^4 cells/35 mm dish, approximately 1×10^5 cells/35 mm dish, approximately 2×10^5 cells/35 mm dish, approximately 4×10^5 cells/35 mm dish and, approximately 6×10^5 cells/35 mm dish.
The inhibitor LY 294002 (Biomol) may be preferably used at the concentration range approximately 20-163 μM and the inhibitor Rapamycin (Calbiochem) is used at the concentration range approximately 1.5-30 nM. LY 294002 inhibits the PI3-kinase pathway by binding to the ATP docking site of p110. Rapamycin inhibits a subset of the PI3-kinase pathway by inhibiting mTOR (mammalian target of rapamycin).
Cells are grown in these conditions for approximately 72 hours with a medium change every 24 hours. Cells are harvested using the collagenase/trypsin method for flow cytometry and RT-PCR analysis and are scraped for biochemical analysis.
In undifferentiated cultures, individual cells are not easily discernable, being relatively small, irregular and without clearly apparent intercellular junctions at higher density. […] Individual cells are also more readily discernable at higher densities since discrete intercellular adhering junctions are evident between neighboring cells.

[2] = test system: PI3-kinase signaling pathway; assay: Western blot analysis of PI3-kinase signaling pathway activity (phosphorylated PKB/Akt, S6 kinase, S6 protein); type: cell-based, human; settings: BG01 cells maintained in the presence of inhibitor
Method: Activity of the PI3-kinase signaling pathway may be assessed by Western blot analysis. Briefly, detergent extracts are prepared from untreated and treated cell cultures, separated by SDS-PAGE and blotted to nitrocellulose. Expression of active forms of the PI3-kinase intracellular targets PKB/Akt, S6 kinase and S6 protein are then determined by probing the nitrocellulose with appropriate antibodies to phosphorylated forms of each of these proteins. Generally, 30 μg of total protein are evaluated for each sample, primary incubations were carried out at a 1:1000 dilution of antibody, and binding in each case is detected by standard ECL based methodology.

BG01 cells [3] = assay: RT-PCR analysis of differentiation markers in inhibitor treated BG01 cells; type: cell-based, human
Method: (§1) The inhibitor studies are performed as described in Example 2.
Total RNA is isolated using TRIzol Reagent (GibcoBRL). RNA is run on a 1% agarose gel containing ethidium bromide and visualized using the AlphaImager™ 2200 Documentation and Analysis System to ensure RNA integrity. 10 μg of RNA is treated with DNase (Ambion), which is removed with DNase Inactivation Reagent (Ambion). cDNA is prepared with 500 ng of total RNA using the Superscript II Reverse transcriptase Kit (Invitrogen) using oligo(dT) primers. PCR reactions are carried out on 1 μl of cDNA. PCR products are run on a 2% agarose gel containing ethidium bromide and visualized using the Alphaamager™ 2200 Documentation and Analysis System. PCR primer sets used were GATA4, Mix1, Msx1, AFP, HNF4alpha, eHAND, Nanog, AFP and GAPDH.

BG01 cells [4] = assay: Flow cytometry of cell surface markers (CD9) on inhibitor treated BG01 cells; type: cell-based, human; settings: compared with spontaneous differentiation in adherent culture or embryoid bodies
Method: as §1
For flow cytometry, the BG01 cells are washed with 1×PBS and fixed in 2% paraformaldehyde/1×PBS for 10 minutes at room temperature. The cells are then washed in 1×PBS and approximately 2×10^5 cells are incubated with primary antibody diluted in 1% BSA/1×PBS. The primary antibodies used are anti-CD9 and anti-thrombomodulin (Cymbus Biotechnology), FITC conjugated mouse monoclonal antibodies at a 1:10 dilution. Cells are incubated at 4° C. for 30 minutes and then washed twice in 1×PBS. Where appropriate, cells are resuspended in a secondary antibody, anti-mouse Alexa-488 (Molecular Probes) diluted 1:1000 in 1% BSA/PBS, incubated at 4° C. for 30 minutes, and then washed twice in 1×PBS. Cells are resuspended in 1% BSA/1×PBS and surface expression is analyzed using a Beckman Coulter FC500.

| SMILES | populations of cells comprising DE (hESCs) | changes in morphology at high plating density (BG01 cells [1]; cells plated at approximately 4×10^5 cells/35 mm dish or higher) | changes in morphology at low plating density (BG01 cells [1]; cells plated lower than approximately 2×10^5 cells/35 mm dish) | morphological change of BG01 cells (BG01 cells [1]; cultured in the presence of inhibitor, matrigel, conditioned medium, approximately 72 hours) | activity of S6 [2] | activity of S6 kinase [2] | markers indicative of early differentiation (BG01 cells [3]) | expression of CD9 (BG01 cells [4]) |
| --- | --- | --- | --- | --- | --- | --- | --- | --- |
| O=c1cc(N2CCOCC2)oc2c(-c3ccccc3)cccc12 [LY 294002, 2-(4-Morpholinyl)-8-phenyl-4H-1-benzopyran-4-one] | 70-80% |  |  |  |  |  |  |  |
| CO[C@H]1C[C@@H]2CC[C@@H](C)[C@@](O)(O2)C(=O)C(=O)N2CCCC[C@H]2C(=O)O[C@H]([C@H](C)C[C@@H]2CC[C@@H](O)[C@H](OC)C2)CC(=O)[C@H](C)/C=C(\C)[C@@H](O)[C@@H](OC)C(=O)[C@H](C)C[C@H](C)/C=C/C=C/C=C/1C [rapamycin] | 70-80% | do not demonstrate the same morphological changes | display changes in morphology | undergo morphological change | abolished | abolished | may be detected | may decrease more rapidly |
